# PubChem BioAssay AID1259425, University of Nebraska Medical Center – 2018
# Test: 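Seek colon cancer weak points whose silencing resembles KSR1 loss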 (primary screen)
# Cell system: HCT116 human colon cancer cells
# Reagent: siRNA pool against human genes, 50 nM siRNA
# Measured: 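mRNA of six signature genes measured together by branched-DNA assay after 50 nM siRNA pool, blank removed, divided by geometric mean of two housekeeping genes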
# Direction: BNIP3L mRNA: higher = more BNIP3L transcript after knockdown; NDRG1 mRNA: higher = more NDRG1 transcript after knockdown; BNIP3 mRNA: higher = more BNIP3 transcript after knockdown; ALDOC mRNA: higher = more ALDOC transcript after knockdown; ACSL5 mRNA: higher = more ACSL5 transcript after knockdown
# This is one part, drawn at random, of about 14,000 deposited reagents. The record does not give: the time to read-out.
gene knocked down,"BNIP3L mRNA, set 1","NDRG1 mRNA, set 1","BNIP3 mRNA, set 1","ALDOC mRNA, set 1","ACSL5 mRNA, set 1"
NCAPD2 (non-SMC condensin I complex subunit D2),0.155,0.241,0.511,0.0257,0.151
CRIPT (CXXC repeat containing interactor of PDZ3 domain),0.0957,0.124,0.269,0.0227,0.0653
SDAD1 (SDA1 domain containing 1),0.134,0.52,0.374,0.0206,0.236
NVL (nuclear VCP like),0.103,0.231,0.307,0.0546,0.117
CLTA (clathrin light chain A),0.107,0.153,0.365,0.0139,0.355
COX6B1 (cytochrome c oxidase subunit 6B1),0.017,0.171,0.326,0.0145,0.212
ZNF79 (zinc finger protein 79),0.191,0.215,0.321,0.0367,0.067
BAGE (B melanoma antigen),0.0898,0.0824,0.296,0.0388,0.114
ZNF83 (zinc finger protein 83),0.105,0.132,0.447,0.0275,0.344
TPPP3 (tubulin polymerization promoting protein family member 3),2.5,3.69,2.24,0.786,0.692
NFIX (nuclear factor I X),0.0969,0.428,0.23,0.0119,0.141
CNTNAP2 (contactin associated protein 2),0.0776,0.211,0.238,0.0197,0.138
RNF41 (ring finger protein 41),0.159,0.137,0.253,0.0546,0.0965
PANK1 (pantothenate kinase 1),0.0471,0.0896,0.16,0.0023,0.13
FAM3B (FAM3 metabolism regulating signaling molecule B),0.0963,0.186,0.234,0.03,0.139
ACSL3 (acyl-CoA synthetase long chain family member 3),0.0709,0.104,0.223,0.0365,0.182
HECTD1 (HECT domain E3 ubiquitin protein ligase 1),0.115,0.165,0.318,0.0343,0.158
PLEKHN1 (pleckstrin homology domain containing N1),0.255,0.414,0.46,0.127,0.554
TCEAL4 (transcription elongation factor A like 4),0.113,0.16,0.182,0.047,0.124
TOMM20 (translocase of outer mitochondrial membrane 20),0.0819,0.146,0.29,0.0389,0.186
PPP1R7 (protein phosphatase 1 regulatory subunit 7),0.103,0.0371,0.272,0.0375,0.0882
PTER (phosphotriesterase related),0.179,0.208,0.389,0.0452,0.112
PSRC1 (proline and serine rich coiled-coil 1),0.186,0.208,0.279,0.0303,0.0968
CD19 (CD19 molecule),0.0895,0.103,0.279,0.0391,0.114

Copied from the list:
For “BNIP3 mRNA, set 1”, PTER (phosphotriesterase related) has 0.389
Value of PANK1 (pantothenate kinase 1) in “BNIP3L mRNA, set 1”: 0.0471
For “NDRG1 mRNA, set 1”, NVL (nuclear VCP like) shows 0.231
PLEKHN1 (pleckstrin homology domain containing N1), BNIP3 mRNA, set 1 = 0.46
BAGE (B melanoma antigen), NDRG1 mRNA, set 1: 0.0824

Further records follow:
gene knocked down,"BNIP3L mRNA, set 1","NDRG1 mRNA, set 1","BNIP3 mRNA, set 1","ALDOC mRNA, set 1","ACSL5 mRNA, set 1"
CFP (complement factor properdin),0.0663,0.0994,0.224,0.0244,0.154
CGB8 (chorionic gonadotropin subunit beta 8),0.0998,0.177,0.211,0.0263,0.23
MRPL34 (mitochondrial ribosomal protein L34),0.164,0.238,0.305,0.0274,0.273
NKTR (natural killer cell triggering receptor),0.181,0.129,0.3,0.0279,0.107
HECTD3 (HECT domain E3 ubiquitin protein ligase 3),0.316,0.589,0.493,0.116,0.22
IRX5 (iroquois homeobox 5),0.132,0.21,0.367,0.0391,0.182
PSD2 (pleckstrin and Sec7 domain containing 2),0.155,0.14,0.294,0.0474,0.232
MRPL13 (mitochondrial ribosomal protein L13),0.127,0.258,0.323,0.0173,0.186
"A4GNT (alpha-1,4-N-acetylglucosaminyltransferase)",0.0897,0.347,0.248,0.0301,0.296
DUSP19 (dual specificity phosphatase 19),0.0647,0.07,0.194,0.0128,0.168
TRIP13 (thyroid hormone receptor interactor 13),0.0795,0.0504,0.222,0.0201,0.177
KLRB1 (killer cell lectin like receptor B1),0.0667,0.332,0.317,0.0219,0.12
RPL3L (ribosomal protein L3 like),0.083,0.031,0.308,0.035,0.225
NDUFB2 (NADH:ubiquinone oxidoreductase subunit B2),0.0797,1.01,0.278,0.0256,0.295
GABRB2 (gamma-aminobutyric acid type A receptor subunit beta2),0.0365,0.479,0.346,0.0924,0.285
"PCYT1B (phosphate cytidylyltransferase 1B, choline)",0.138,0.248,0.265,0.0329,0.221
ZBTB11 (zinc finger and BTB domain containing 11),0.0762,0.219,0.188,0.0134,0.163
FBXL19 (F-box and leucine rich repeat protein 19),0.112,0.701,0.292,0.057,0.234
DDAH1 (dimethylarginine dimethylaminohydrolase 1),0.0395,0.119,0.347,0.0151,0.212
EIPR1 (EARP complex and GARP complex interacting protein 1),0.0649,0.136,0.309,0.0248,0.128
P2RY14 (purinergic receptor P2Y14),0.275,0.183,0.435,0.0425,0.157
ITSN1 (intersectin 1),0.0508,0.0357,0.264,0.00657,0.0661
P2RY6 (pyrimidinergic receptor P2Y6),0.274,1.26,0.681,0.0879,0.25
NTRK1 (neurotrophic receptor tyrosine kinase 1),0.0896,0.17,0.239,0.00772,0.309
DNAH3 (dynein axonemal heavy chain 3),0.0737,0.112,0.212,0.0136,0.19
ADAMTS7 (ADAM metallopeptidase with thrombospondin type 1 motif 7),0.0823,0.322,0.245,0.037,0.19
